The list does not hold the whole screen: it gathers tests that were run many times, whatever their T/C, doses with no T/C, and many T/C values between a quarter and a half above the control. Further doses and runs are listed elsewhere. T/C is the treated group as % of the vehicle group. Schedule codes are those of the source, read here as Q, the interval in days (D) or hours (H), X, the number of doses. Some entries give survivors of the animals treated and no T/C: the source files T/C as zero there, which appears to mark a toxic dose or a test without result, not a measured value. Survivors were counted at the toxicity check, usually on the fifth day, unless a day is given; later deaths do not show. Some entries were tested several times; their values stand side by side, smallest first.
Test system: CD8F1 mice, subcutaneous mammary adenocarcinoma, T/C%
Assay: NCI In Vivo Anticancer Drug Screen. Data for tumor model Mammary Adenocarcinoma CD8F1 (subcutaneous) in CD8F1
Conditions: higher T/C = larger tumour
Method: The antitumor activity of compounds was measured in mice bearing transplantable tumors. Survival or tumor size were measured and the results are expressed as the measurement made in the treated group (T) divided by the measurement made in the vehicle treated control group (C). The tumor model used in this assay is Mammary Adenocarcinoma CD8F1 (subcutaneous) in CD8F1

[1] = T/C endpoint: median tumor weight change, dose: 500.0 mg/kg/injection, schedule: Q01DX001 (ip), vehicle: saline with Tween-80
[2] = T/C endpoint: median tumor weight change, dose: 1000.0 mg/kg/injection, schedule: Q01DX001 (ip), vehicle: saline with Tween-80
[3] = T/C endpoint: median tumor weight change, dose: 2000.0 mg/kg/injection, schedule: Q01DX001 (ip), vehicle: saline with Tween-80

COc1ccc(C(=O)C(CN(C)C)CN(C)C)cc1
survivor count (T/C endpoint: median tumor weight change, dose: 62.5 mg/kg/injection, schedule: Q01DX001 (ip), vehicle: saline): 3 of 10 on day 34
survivor count (T/C endpoint: median tumor weight change, dose: 125.0 mg/kg/injection, schedule: Q01DX001 (ip), vehicle: saline): 1 of 10 on day 34

CC[C@@]1(O)C(=O)OCc2c1cc1n(c2=O)Cc2cc3cc(O)ccc3nc2-1
T/C (T/C endpoint: median tumor weight change, dose: 3.75 mg/kg/injection, schedule: Q01DX001 (ip), vehicle: saline, evaluated on day 35): 130 % of control

Clc1ccc(CN2COc3c(ccc4cccnc34)C2)cc1Cl
T/C (T/C endpoint: median tumor weight (est.), dose: 100.0 mg/kg/injection, schedule: Q07DX005 (ip), vehicle: saline with Tween-80, evaluated on day 30): 137 % of control
survivor count (T/C endpoint: median tumor weight (est.), dose: 800.0 mg/kg/injection, schedule: Q07DX005 (ip), vehicle: saline with Tween-80): 1 of 10 on day 30

CCOC(=O)C1=C(C#N)C2(CCC(OCc3ccccc3)CC2)C(=O)O1 (stereo unspecified)
survivor count (T/C endpoint: median tumor weight change, dose: 2000.0 mg/kg/injection, schedule: Q01DX001 (ip), vehicle: suspension in saline): 0 of 10 on day 31

CCO/C=C1\SC(=S)N(c2ccccc2C)C1=O
T/C (T/C endpoint: median tumor weight (est.), dose: 25.0 mg/kg/injection, schedule: Q07DX005 (ip), vehicle: saline with Tween-80, evaluated on day 30): 136 % of control
T/C (T/C endpoint: median tumor weight (est.), dose: 50.0 mg/kg/injection, schedule: Q07DX005 (ip), vehicle: saline with Tween-80, evaluated on day 30): 142 % of control

Cc1cc2c(C(C)C)c(O)c(O)c(C=O)c2c(O)c1-c1c(C)cc2c(C(C)C)c(O)c(O)c(C=O)c2c1O
survivor count (T/C endpoint: median tumor weight change, dose: 62.5 mg/kg/injection, schedule: Q01DX001 (ip), vehicle: saline with Tween-80): 0 of 10 on day 28
survivor count (T/C endpoint: median tumor weight change, dose: 125.0 mg/kg/injection, schedule: Q01DX001 (ip), vehicle: saline with Tween-80): 0 of 10 on day 28
survivor count (T/C endpoint: median tumor weight change, dose: 250.0 mg/kg/injection, schedule: Q01DX001 (ip), vehicle: saline with Tween-80): 0 of 10 on day 28
survivor count [1]: 0 of 10 on day 28

Cc1c2c(c(O)c3c(O)cccc13)C(=O)C1(O)C(O)=C(C(=O)NCNc3ccc(C(N)=O)cn3)C(=O)C(N(C)C)C1C2 (stereo unspecified)
survivor count (T/C endpoint: median tumor weight change, dose: 250.0 mg/kg/injection, schedule: Q01DX001 (ip), vehicle: saline): 6 of 10 on day 34

COc1cccc2c1C(=N)c1c(O)c3c(c(O)c1C2=O)C[C@@](O)(C(C)=O)C[C@@H]3OC1CC(N)C(O)C(C)O1 (stereo partly specified)
survivor count (T/C endpoint: median tumor weight (est.), dose: 6.67 mg/kg/injection, schedule: Q07DX005 (ip), vehicle: saline): 2 of 10

CC(/C=C/c1ccccc1)=Nc1ccccc1
survivor count [2]: 1 of 10 on day 28
survivor count [3]: 1 of 10 on day 28

CCCCOCN(COCCCC)C12CC3CC(CC(C3)C1)C2
survivor count [1]: 6 of 10 on day 27
survivor count [2]: 1 of 10 on day 27
survivor count [3]: 0 of 10 on day 27

C/C=C/C=C/c1cc2cc3c(c(O)c2c(=O)[nH]1)C1(CC3)C(O)=c2c(=O)c3c(=O)cc(OC)c(=O)c=3c(=O)c2=C1O (stereo unspecified)
T/C (T/C endpoint: median tumor weight change, dose: 0.31 mg/kg/injection, schedule: Q01DX001 (ip), vehicle: DMSO, evaluated on day 31): 144 % of control
survivor count (T/C endpoint: median tumor weight change, dose: 2.5 mg/kg/injection, schedule: Q01DX001 (ip), vehicle: DMSO): 0 of 10 on day 31 and 6 of 10 on day 32
survivor count (T/C endpoint: median tumor weight change, dose: 5.0 mg/kg/injection, schedule: Q01DX001 (ip), vehicle: DMSO): 0 of 10 on day 31 and 0 of 10 on day 32

C[n+]1cccc(NC(=O)c2ccc(NC(=O)C34CCC(C(=O)Nc5ccc(C(=O)Nc6ccc[n+](C)c6)cc5)(CC3)CC4)cc2)c1
survivor count (T/C endpoint: median tumor weight change, dose: 200.0 mg/kg/injection, schedule: Q01DX001 (ip), vehicle: saline with Tween-80): 1 of 10 on day 30 and 2 of 10 on day 30
survivor count (T/C endpoint: median tumor weight change, dose: 400.0 mg/kg/injection, schedule: Q01DX001 (ip), vehicle: saline with Tween-80): 0 of 10 on day 30 and 4 of 10 on day 38
survivor count (T/C endpoint: median tumor weight change, dose: 800.0 mg/kg/injection, schedule: Q01DX001 (ip), vehicle: saline with Tween-80): 0 of 10 on day 30

C1OC1CO[C@@H]1CO[C@H]2[C@@H]1OC[C@H]2OCC1CO1 (stereo partly specified)
survivor count (T/C endpoint: median tumor weight (est.), dose: 800.0 mg/kg/injection, schedule: Q07DX005 (ip), vehicle: suspension in saline): 0 of 10 on day 30

Reference: PubChem BioAssay AID220 (DTP/NCI, 2004)
